{"source": "PubChem BioAssay AID1259254 (NCATS, 2017)", "test": "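Finding genes that stop cells copying their DNA twice in one cycle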 (primary screen)", "cell system": "human HCT116 colorectal cancer cells", "reagents": "single siRNA against human genes", "timing": "3 days", "read-out": "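Imaged Hoechst DNA stain sorts each cell into a cycle phase by DNA amount; per plate, G2 fraction set to 0% for non-targeting and 100% for GMNN siRNA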", "reading the numbers": "G2 robust z-score: higher = more G2 cells, more excess DNA replication", "active means": "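Active siRNAs have a G2 robust z of 5 or more median absolute deviations over the median, which in these data means about 38% or higher of GMNN control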", "note": "The deposit covers about 59,000 reagents; shown is a part drawn at random. About 1,550 of all reagents (2.6%) count as active. 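G2 share is only a proxy for re-replication; each gene was hit by three separate siRNAs, and active genes were retested.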 Unmarked entries are inactive. Reagents against one gene are numbered here. Further read-outs or replicates are left out here. Not stated in the record: the amount of reagent."}
{"target gene": "BDKRB1", "reagent no.": 1, "G2 robust z-score": 0.106}
{"target gene": "BDKRB1", "reagent no.": 2, "G2 robust z-score": -0.0329}
{"target gene": "BDKRB1", "reagent no.": 3, "G2 robust z-score": 4.59}
{"target gene": "CLDN1", "reagent no.": 1, "G2 robust z-score": -0.141}
{"target gene": "CLDN1", "reagent no.": 2, "G2 robust z-score": 1.05}
{"target gene": "CLDN1", "reagent no.": 3, "G2 robust z-score": -0.497}
{"target gene": "NR1I3", "reagent no.": 1, "G2 robust z-score": "6.97 (active)"}
{"target gene": "NR1I3", "reagent no.": 2, "G2 robust z-score": -1.25}
{"target gene": "NR1I3", "reagent no.": 3, "G2 robust z-score": -0.781}
{"target gene": "BTBD18", "reagent no.": 1, "G2 robust z-score": -0.648}
{"target gene": "BTBD18", "reagent no.": 2, "G2 robust z-score": 0.134}
{"target gene": "BTBD18", "reagent no.": 3, "G2 robust z-score": 0.279}
{"target gene": "ZNF107", "reagent no.": 1, "G2 robust z-score": 1.34}
{"target gene": "ZNF107", "reagent no.": 2, "G2 robust z-score": -0.0495}
{"target gene": "ZNF107", "reagent no.": 3, "G2 robust z-score": 2.48}
{"target gene": "ECSCR", "reagent no.": 1, "G2 robust z-score": 2.46}
{"target gene": "ECSCR", "reagent no.": 2, "G2 robust z-score": 0.771}
{"target gene": "ECSCR", "reagent no.": 3, "G2 robust z-score": 0.071}
{"target gene": "RPRD2", "reagent no.": 1, "G2 robust z-score": -1.36}
{"target gene": "RPRD2", "reagent no.": 2, "G2 robust z-score": -0.00604}
{"target gene": "RPRD2", "reagent no.": 3, "G2 robust z-score": -0.122}
{"target gene": "PRMT2IP", "reagent no.": 1, "G2 robust z-score": 0.116}
{"target gene": "PRMT2IP", "reagent no.": 2, "G2 robust z-score": -0.961}
{"target gene": "PRMT2IP", "reagent no.": 3, "G2 robust z-score": 0.119}
{"target gene": "UBA1", "reagent no.": 1, "G2 robust z-score": 4.45}
{"target gene": "UBA1", "reagent no.": 2, "G2 robust z-score": 0.144}
{"target gene": "UBA1", "reagent no.": 3, "G2 robust z-score": 1.12}
{"target gene": "ANKRD20A3P", "reagent no.": 1, "G2 robust z-score": 1.98}
{"target gene": "ANKRD20A3P", "reagent no.": 2, "G2 robust z-score": 0.829}
{"target gene": "ANKRD20A3P", "reagent no.": 3, "G2 robust z-score": 1.35}
